# Laboratory results reported in PubChem BioAssay AID504444 (National Center for Advancing Translational Sciences (NCATS), 2011).
# The campaign covered roughly 360,000 compounds. About 7,500 (2.1%) were called active. The shares of active, inactive and inconclusive entries below differ from those in the screen. Calls come from the whole dose curve; as a rule, active = well fitted inhibition curve with a large enough effect; inconclusive = small, poorly fitted or top-dose-only effect, or effect the other way; inactive = flat fitted curve, though single readings scatter. Potencies beside an inconclusive call are fits to weak or partial responses and may not hold up.
# Assay: Nrf2 qHTS screen for inhibitors; note: nearly all actives have a fitted effect of over 60% in size
# Details: A549 ARE-Fluc reporter, luciferase luminescence, 18-24 h; activity change, negative = inhibition: at 46 µM (top of the series)
# Procedure, shortened: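 Nrf2 function is reported as luminescence of an ARE-controlled luciferase in A549 cells. Compounds were tested at several concentrations, and a CellTiter-Fluor read on the same wells flagged cytotoxicity.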
# % is set by controls: 0 for no effect and ±100 for the full control effect; potency is the fitted concentration of half-maximal effect.
SMILES,Potency,"activity change, negative = inhibition"
O=C(Nc1ccccc1N1CCOCC1)c1ccc([N+](=O)[O-])s1,"inconclusive: 9.2 µM [falling, partial curve, poor fit]",–
COc1ccc(CNC(=O)c2cnn(-c3ccc(OC)cc3)c2C2CCN(C(=O)OC(C)(C)C)CC2)cc1,"inconclusive: 29.1 µM [falling, single point]",–
O=C1N/C(=N/N=C/c2ccccc2O)SC1Cc1ccc(F)cc1 (centres undefined),–,inactive: -13.5%
COCCn1c(=S)[nH]c2cc(C(=O)N3CCc4ccccc4C3)ccc2c1=O,"inconclusive: 2.59 µM [falling, partial curve, poor fit]",–
NC(=O)[C@H]1CC2(CC(c3cccc(NC(=O)COc4ccc(Cl)cc4)c3)=NO2)CN1C(=O)c1ccc(Cl)cc1 (some centres undefined),active: 25.9 µM,–
Cc1c2cnn(-c3ccccc3)c(=O)c2c(C)n1CC(=O)N1CCN(c2cccc(Cl)c2)CC1,"inconclusive: 29.1 µM [falling, single point]",–
Cc1cc(NC(=O)Nc2ccccc2[N+](=O)[O-])n(C)n1,"inconclusive: 9.2 µM [falling, partial curve]",–
CC1CN(C(=O)N[C@@H](Cc2ccccc2)C(=O)O)CC(C)O1 (some centres undefined),"inconclusive: 7.31 µM [activator, partial curve]",–
CC(=O)c1ccc(OCCCC(=O)Nc2ccc(C)c(S(=O)(=O)N3CCCCC3)c2)cc1,active: 18.4 µM,–
CCc1cc(=O)n2c([nH]c3ccccc32)c1C#N,"inconclusive: 29.1 µM [activator, single point]",–
COc1ccc(/C=N/Nc2nccnc2Cl)cc1,"inconclusive: 0.92 µM [activator, full curve]",–
Cc1cc(C)n(CCN(C)C(=O)CCc2nnc(CCC3CCCCC3)o2)n1,"inconclusive: 2.31 µM [activator, full curve]",–
O=C(NCCN1CCCC1)c1ccc2c(=O)n(CCc3ccccc3)c(=O)[nH]c2c1,"inconclusive: 13 µM [activator, single point]",–
Cc1ccc(C2(C)NC(=O)N(CC(=O)N3CCN(C(=O)c4cccs4)CC3)C2=O)cc1 (centres undefined),–,inactive: -0.12%
CCC(C)Sc1nc2c(c(=O)[nH]c(=O)n2C)n1CC(O)COc1cccc2ccccc12 (centres undefined),"inconclusive: 0.146 µM [activator, full curve, poor fit]",–
Cc1cccc(Nc2nc(C#N)nc(NC3CCCC3)n2)c1,"inconclusive: 25.9 µM [falling, single point]",–
CCc1nnc(NC(=O)c2ccc3ncsc3c2)s1,–,inactive: -13.1%
CC1(C)CC(NC(=O)c2cc(COc3cccc(C(F)(F)F)c3)on2)CCO1 (centres undefined),"inconclusive: 20.6 µM [falling, single point]",–
O=C1C2C3C=CC(O3)C2C(=O)N1CC(O)c1ccccc1 (centres undefined),–,inactive: 11.8%
Cc1onc(-c2c(F)cccc2Cl)c1C(=O)OCC(=O)Nc1cccc(S(=O)(=O)N(C)C)c1,"inconclusive: 29.1 µM [falling, single point]",–
COc1ccccc1C(=O)Nc1ccc2nc3n(c(=O)c2c1)CCCC3,"inconclusive: 18.4 µM [activator, partial curve]",–
CCOC(=O)c1ccc(N(CC(=O)NC2CCCCC2)C(=O)CNC(=O)c2ccco2)cc1,"inconclusive: 0.116 µM [falling, full curve, poor fit]",–

SMILES,Potency,"activity change, negative = inhibition"
COCCCNC(=O)c1sc2nc(C)c(C(=O)Nc3ccc(Cl)cc3)c(-c3ccc(Br)cc3)c2c1N,–,inactive: 7.43% [at 9.27 µM]
CC1=NN(Cc2cc(C(C)(C)C)c(O)c(C(C)(C)C)c2)C(=O)C1,"inconclusive: 10.3 µM [falling, partial curve, poor fit]",–
Cc1ccc(-c2n[nH]c(=S)n2/N=C/c2ccncc2)cc1,"inconclusive: 29.1 µM [falling, single point]",–
O=C(CN1CCN(S(=O)(=O)c2ccc3ccccc3c2)CC1)Nc1ccc2c(c1)CCC2,"inconclusive: 13 µM [falling, partial curve]",–
COc1ccc(-n2c(Cc3ccccc3)nnc2SCc2nc(-c3ccccc3C)no2)cc1,"inconclusive: 29.1 µM [falling, single point]",–
CC(CN1CCCCC1)NC(=O)c1cc(-c2ccccn2)nc2ccc(Cl)cc12 (centres undefined),–,inactive: -11.4%
Cc1ccc2onc(CNC(=O)N(C)Cc3ccccc3)c2c1,"inconclusive: 29.1 µM [activator, single point]",–
Cc1csc(SCC(=O)Nc2ccc3c(c2)OCCO3)n1,"inconclusive: 14.6 µM [activator, partial curve]",–
O=[S+]([O-])(c1ccc(-c2ccccc2)cc1)N1CCN([S+](=O)([O-])c2ccc3c(c2)OCCO3)CC1,–,inactive: 21.1%
N#CCC(=O)N/N=C/c1cc([N+](=O)[O-])ccc1N1CCOCC1,"inconclusive: 13 µM [falling, partial curve, poor fit]",–
O=C(CSc1nnc(-c2ccccc2Br)o1)Nc1cccc2ccccc12,"inconclusive: 29.1 µM [activator, single point]",–
O=C1c2[nH]nc(-c3ccccc3O)c2C(c2cccc(Br)c2)N1Cc1ccncc1 (centres undefined),–,inactive: -8.03%
O=c1[nH]cnc2c1ncn2Cc1ccc([N+](=O)[O-])cc1,"inconclusive: 0.0073 µM [falling, full curve, poor fit]",–
CCc1ccc(S(=O)(=O)ON2C(=O)c3ccccc3C2=O)cc1,–,inactive: 3.61%
CCOc1cccc2cc(C(=O)NCc3ccc(Cl)cc3)c(=N)oc12,"inconclusive: 18.4 µM [activator, partial curve, poor fit]",–
CC(=O)c1sc(NC(=O)c2ccc(Cn3cc(Br)cn3)o2)nc1C,"inconclusive: 32.6 µM [activator, single point]",–
C/C(=N\NC(=O)CO/N=C(\C)c1cccs1)c1ccc(N)cc1,"inconclusive: 25.9 µM [falling, partial curve, poor fit]",–
COc1ccc(CCn2c(C)cc(C(=O)CSc3nnnn3-c3ccccc3)c2C)cc1OC,"inconclusive: 29.1 µM [falling, single point]",–
Cc1ccc(N2C(=O)c3cccc([N+](=O)[O-])c3C2=O)cc1C,"inconclusive: 6.51 µM [activator, partial curve]",–
C=CCNC(=O)c1onc(CSc2cc(C)cc(C)c2)c1C(=O)NCC=C,"inconclusive: 2.06 µM [activator, single point]",–
CCC(=O)Nc1cc(-c2nc3cc(C)cc(C)c3o2)ccc1C,"inconclusive: 0.82 µM [activator, full curve]",–
Cc1ccc(CSCCNC(=O)CSCc2ccc([N+](=O)[O-])cc2)cc1,–,inactive: 11.2%

SMILES,Potency,"activity change, negative = inhibition"
Cc1cccc2c1-c1sc(C(=O)Nc3ccccc3C(N)=O)cc1CO2,"inconclusive: 23.1 µM [activator, partial curve, poor fit]",–
CCc1ccccc1NC(=O)CN1CCN(C(=O)C(C)NC(=O)c2ccc(Cl)cc2)CC1 (centres undefined),"inconclusive: 25.9 µM [falling, single point]",–
O=C(CSc1nc2ccccc2c(=O)n1Cc1ccc(C(=O)NC2CC2)cc1)NCc1ccco1,"inconclusive: 29.1 µM [activator, single point]",–
Cc1ccccc1OCCC(=O)OCC(=O)Nc1ccc(C(N)=O)cc1,"inconclusive: 6.51 µM [activator, single point]",–
CS(=O)(=O)CCC(C(=O)N1CCOCC1)N1C(=O)c2cc(Cl)c(Cl)cc2C1=O (centres undefined),"inconclusive: 29.1 µM [activator, single point]",–
COc1ccccc1NC(=O)NCc1nc(-c2ccc(C(F)(F)F)cc2)no1,"inconclusive: 23.1 µM [falling, single point]",–
COc1cccc(C(=O)COc2cccc(NC(=O)c3cccc([N+](=O)[O-])c3)c2)c1,active: 18.4 µM,–
Cc1cc(C)cc(NC(c2cccc(Cl)c2)c2nnc(-c3ccccc3)o2)c1 (centres undefined),–,inactive: 3.72%
C/C(N)=C(/C#N)C(=O)COC(=O)CC12CC3CC(CC(C3)C1)C2,"inconclusive: 32.6 µM [falling, single point]",–
COc1ccc(C(=O)CSc2nnc(COc3ccc(C#N)cc3)n2-c2ccccc2)cc1,"inconclusive: 13 µM [falling, partial curve, poor fit]",–
CCc1cc2c(cc3c(=O)n(CC(=O)NC4CCC(C)CC4)nc(CC)n32)s1 (centres undefined),"inconclusive: 8.2 µM [activator, partial curve]",–
CC(=O)c1c(C)[nH]c(C(=O)OC2CCCCC2=O)c1C (centres undefined),"inconclusive: 29.1 µM [falling, single point]",–
CC(C)(C)OC(=O)N1CCN(c2ccc(CNC(=O)c3ccc(Cl)cc3)cc2)CC1,active: 10.3 µM,–
O=C1c2oc3ccccc3c(=O)c2C(c2ccccc2F)N1Cc1ccc2c(c1)OCO2 (centres undefined),–,inactive: 14.8%
Cc1ccc(C)c(NC(=O)N2CCN(c3nnc(C)c4c(C)n(-c5ccccc5)nc34)CC2)c1,"inconclusive: 8.2 µM [falling, partial curve]",–
CC(C)c1cc2cc3ccc(=O)oc3cc2o1,"inconclusive: 4.61 µM [activator, partial curve]",–
Cc1ccc2c(c1)N(CCC(=O)NCC1COc3ccccc3O1)C(=O)CO2 (centres undefined),"inconclusive: 3.66 µM [falling, full curve, poor fit]",–
COc1ccc(C(=O)NN/C(=N/S(=O)(=O)c2ccc(C)cc2)c2ccccc2)cc1,"inconclusive: 4.61 µM [activator, partial curve]",–
Nn1c(SCC(=O)Nc2ccc(N3CCOCC3)cc2)nnc1-c1cccc(F)c1,"inconclusive: 29.1 µM [activator, single point]",–
O=C(Cc1c[nH]c2ccccc12)NCc1ccccc1F,"inconclusive: 0.164 µM [falling, partial curve, poor fit]",–

# 3 compounds picked at random from the list so far:
SMILES,Potency,"activity change, negative = inhibition"
CCOc1cccc2cc(C(=O)NCc3ccc(Cl)cc3)c(=N)oc12,"inconclusive: 18.4 µM [activator, partial curve, poor fit]",–
Cc1ccc(C2(C)NC(=O)N(CC(=O)N3CCN(C(=O)c4cccs4)CC3)C2=O)cc1 (centres undefined),–,inactive: -0.12%
O=C1c2oc3ccccc3c(=O)c2C(c2ccccc2F)N1Cc1ccc2c(c1)OCO2 (centres undefined),–,inactive: 14.8%
